No constants are given. Whether binding was seen depends on the method and setting. In cells and extracts the contact can be indirect. Some entries that bind do so weakly or less than the wild type. Sequences can lack the tags named with a protein.
Target: T1, PNPase-FLAG (polynucleotide phosphorylase with a C-terminal 3xFLAG tag, expressed from the chromosomal pnp locus) (E. coli) (UniProt P05055)
T1 sequence: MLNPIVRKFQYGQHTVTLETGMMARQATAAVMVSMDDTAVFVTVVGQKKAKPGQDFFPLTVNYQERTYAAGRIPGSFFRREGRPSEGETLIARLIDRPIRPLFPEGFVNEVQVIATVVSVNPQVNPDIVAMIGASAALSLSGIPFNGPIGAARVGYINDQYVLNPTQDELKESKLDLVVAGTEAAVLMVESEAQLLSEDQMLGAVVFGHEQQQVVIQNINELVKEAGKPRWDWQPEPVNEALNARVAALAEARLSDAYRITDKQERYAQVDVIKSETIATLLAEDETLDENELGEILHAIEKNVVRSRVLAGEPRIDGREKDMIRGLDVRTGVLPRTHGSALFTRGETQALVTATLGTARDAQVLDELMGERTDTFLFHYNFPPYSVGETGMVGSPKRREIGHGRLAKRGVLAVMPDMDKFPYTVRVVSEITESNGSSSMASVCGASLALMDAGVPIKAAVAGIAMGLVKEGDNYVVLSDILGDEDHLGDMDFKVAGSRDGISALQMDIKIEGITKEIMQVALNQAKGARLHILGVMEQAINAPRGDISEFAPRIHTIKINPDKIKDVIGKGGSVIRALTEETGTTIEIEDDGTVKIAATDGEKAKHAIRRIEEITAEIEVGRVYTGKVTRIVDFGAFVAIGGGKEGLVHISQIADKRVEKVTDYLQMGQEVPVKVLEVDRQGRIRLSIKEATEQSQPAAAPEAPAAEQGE
Assay: co-IP; PNPase-FLAG immunoprecipitated with anti-FLAG M2 agarose from lysates of late exponential phase E. coli cultures (OD600 1.0), TBS pH 7.4, 4 °C; in vivo formaldehyde crosslinking before purification, crosslinks reversed afterwards; elution with 3xFLAG peptide; Western blot with anti-Hfq

Protein sequences, listed by entry. Tags and fused reporters are not part of them.
UniProt P0A6X3: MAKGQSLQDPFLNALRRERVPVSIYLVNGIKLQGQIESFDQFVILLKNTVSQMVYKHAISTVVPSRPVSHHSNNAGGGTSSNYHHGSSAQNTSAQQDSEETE

With “Hfq (endogenous) (from UniProt P0A6X3 1-102)” the binding was “binds”.

From article PMC4748814
